From article PMC11358041 come the findings set out here.

By UniProt entry, the sequences of proteins in these tests, tags left out.
UniProt Q8K371: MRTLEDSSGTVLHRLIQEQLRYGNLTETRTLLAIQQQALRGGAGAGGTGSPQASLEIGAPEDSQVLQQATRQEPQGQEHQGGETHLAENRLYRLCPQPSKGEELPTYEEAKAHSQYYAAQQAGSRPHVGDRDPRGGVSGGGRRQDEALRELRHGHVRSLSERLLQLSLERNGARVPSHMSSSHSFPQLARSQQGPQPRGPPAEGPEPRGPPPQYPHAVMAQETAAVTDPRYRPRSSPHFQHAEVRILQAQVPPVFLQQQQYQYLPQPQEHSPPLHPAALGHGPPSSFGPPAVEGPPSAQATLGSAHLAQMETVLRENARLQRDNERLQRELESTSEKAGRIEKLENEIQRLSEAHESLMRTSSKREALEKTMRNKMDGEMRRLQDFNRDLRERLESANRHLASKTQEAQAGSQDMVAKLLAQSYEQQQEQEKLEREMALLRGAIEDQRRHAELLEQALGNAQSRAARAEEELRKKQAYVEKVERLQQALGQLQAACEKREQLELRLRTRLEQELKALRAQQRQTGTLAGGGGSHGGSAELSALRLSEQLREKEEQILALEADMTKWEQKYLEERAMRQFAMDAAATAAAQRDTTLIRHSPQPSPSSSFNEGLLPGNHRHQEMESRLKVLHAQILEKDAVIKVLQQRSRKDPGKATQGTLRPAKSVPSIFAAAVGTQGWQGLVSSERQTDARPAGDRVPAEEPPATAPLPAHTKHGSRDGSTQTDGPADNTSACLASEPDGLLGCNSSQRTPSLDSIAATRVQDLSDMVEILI
UniProt Q9Y2J4: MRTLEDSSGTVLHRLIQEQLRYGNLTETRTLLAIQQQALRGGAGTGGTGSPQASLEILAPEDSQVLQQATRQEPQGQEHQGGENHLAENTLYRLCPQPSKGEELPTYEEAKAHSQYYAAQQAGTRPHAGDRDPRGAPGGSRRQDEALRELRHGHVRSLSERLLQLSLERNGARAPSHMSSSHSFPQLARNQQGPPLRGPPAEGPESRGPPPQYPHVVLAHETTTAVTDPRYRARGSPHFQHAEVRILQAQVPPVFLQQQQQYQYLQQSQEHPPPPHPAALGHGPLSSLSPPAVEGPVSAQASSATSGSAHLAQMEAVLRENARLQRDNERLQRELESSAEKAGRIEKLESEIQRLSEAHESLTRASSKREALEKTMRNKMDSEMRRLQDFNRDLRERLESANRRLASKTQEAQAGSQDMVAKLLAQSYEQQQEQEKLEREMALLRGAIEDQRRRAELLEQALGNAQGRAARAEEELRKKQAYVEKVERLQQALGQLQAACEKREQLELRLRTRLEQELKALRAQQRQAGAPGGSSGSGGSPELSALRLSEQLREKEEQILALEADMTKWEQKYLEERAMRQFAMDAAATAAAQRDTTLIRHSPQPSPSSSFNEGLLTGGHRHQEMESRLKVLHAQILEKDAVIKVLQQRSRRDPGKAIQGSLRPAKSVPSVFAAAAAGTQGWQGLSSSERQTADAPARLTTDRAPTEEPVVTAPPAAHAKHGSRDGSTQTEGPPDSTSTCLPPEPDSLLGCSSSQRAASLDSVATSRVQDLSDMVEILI
UniProt Q02248: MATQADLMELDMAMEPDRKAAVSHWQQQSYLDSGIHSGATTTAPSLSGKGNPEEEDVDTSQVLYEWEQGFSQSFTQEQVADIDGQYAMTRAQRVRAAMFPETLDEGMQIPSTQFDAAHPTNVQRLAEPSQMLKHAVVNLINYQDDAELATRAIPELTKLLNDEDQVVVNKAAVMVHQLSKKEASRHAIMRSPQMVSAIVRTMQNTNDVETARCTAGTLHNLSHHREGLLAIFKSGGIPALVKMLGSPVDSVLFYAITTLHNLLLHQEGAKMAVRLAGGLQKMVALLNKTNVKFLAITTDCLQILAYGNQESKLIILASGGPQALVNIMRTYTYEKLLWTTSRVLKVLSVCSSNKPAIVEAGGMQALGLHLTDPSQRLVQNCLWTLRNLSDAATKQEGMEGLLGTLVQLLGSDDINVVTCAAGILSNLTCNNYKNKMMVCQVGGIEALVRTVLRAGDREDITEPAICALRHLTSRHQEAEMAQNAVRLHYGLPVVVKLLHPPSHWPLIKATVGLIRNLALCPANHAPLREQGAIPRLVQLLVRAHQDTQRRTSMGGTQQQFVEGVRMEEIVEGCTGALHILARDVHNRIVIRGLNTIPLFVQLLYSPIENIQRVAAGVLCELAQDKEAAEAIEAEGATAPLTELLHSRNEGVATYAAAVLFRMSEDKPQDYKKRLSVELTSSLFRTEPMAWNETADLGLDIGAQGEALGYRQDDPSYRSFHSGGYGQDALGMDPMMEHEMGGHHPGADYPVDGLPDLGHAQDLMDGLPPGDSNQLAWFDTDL

No constants are given. Whether binding was seen depends on the method and setting. Binding seen in cells or lysates may run through a third protein. Some binding calls cover weakened binding; strength is not graded here.

In assay [1] the target is AmotL2 (mouse, endogenous) (mouse (endogenous in MS1 cells, lung and aorta)) (UniProt Q8K371). Nature of the assay: co-IP; mouse lung tissue lysate (1% Triton X-100 lysis buffer), IP with AmotL2 antibody or rabbit IgG, Protein G beads, western blot. For orientation: A western blot detects proteins with antibodies after separation by electrophoresis.
The target in assay [2] is AmotL2 (human, endogenous) (human (endogenous in HUVECs and HAoECs)) (UniProt Q9Y2J4). Nature of the assay: co-IP; HUVEC lysate, static or after 96 h on an orbital shaker (300 r.p.m.), cells at the periphery of the dish harvested; IP with AmotL2 antibody, western blot.
For assay [3], the target named is AmotL2 (mouse, endogenous) (mouse (endogenous in MS1 cells, lung and aorta)) (UniProt Q8K371). Nature of the assay: proximity ligation; PLA (NaveniFlex MR kit) with AmotL2 and p120 catenin antibodies on whole-mounted mouse descending aorta and inferior vena cava; amotl2 endothelial knockout tissue as control.

As to “β-catenin (mouse, endogenous) (from UniProt Q02248 1-781)”, in assay [1], the binding result is listed as “binds”.

B1: VE-cadherin (human, endogenous) (protein, UniProt P33151 48-784)
chain: DWIWNQMHIDEEKNTSLPHHVGKIKSSVSRKNAKYLLKGEYVGKVFRVDAETGDVFAIERLDRENISEYHLTAVIVDKDTGENLETPSSFTIKVHDVNDNWPVFTHRLFNASVPESSAVGTSVISVTAVDADDPTVGDHASVMYQILKGKEYFAIDNSGRIITITKSLDREKQARYEIVVEARDAQGLRGDSGTATVLVTLQDINDNFPFFTQTKYTFVVPEDTRVGTSVGSLFVEDPDEPQNRMTKYSILRGDYQDAFTIETNPAHNEGIIKPMKPLDYEYIQQYSFIVEATDPTIDLRYMSPPAGNRAQVIINITDVDEPPIFQQPFYHFQLKENQKKPLIGTVLAMDPDAARHSIGYSIRRTSDKGQFFRVTKKGDIYNEKELDREVYPWYNLTVEAKELDSTGTPTGKESIVQVHIEVLDENDNAPEFAKPYQPKVCENAVHGQLVLQISAIDKDITPRNVKFKFILNTENNFTLTDNHDNTANITVKYGQFDREHTKVHFLPVVISDNGMPSRTGTSTLTVAVCKCNEQGEFTFCEDMAAQVGVSIQAVVAILLCILTITVITLLIFLRRRLRKQARAHGKSVPEIHEQLVTYDEEGGGEMDTTSYDVSVLNSVRRGGAKPPRPALDARPSLYAQVQKPPRHAPGAHGGPGEMAAMIEVKKDEADHDGDGPPYDTLHIYGYEGSESIAESLSSLGTDSSDSDVDYDFLNDWGPRFKMLAELYGSDPREELLY
Regarding B1, the binding entry in assay [2] is “binds”.

B2: p120 catenin (mouse, endogenous) (protein, UniProt P30999 1-938)
chain: MDDSEVESTASILASVKEQEAQFEKLTRALEEERRHVSAQLERVRVSPQDANSLMANGTLTRRHQNGRFVGDADLERQKFSDLKLNGPQDHNHLLYSTIPRMQEPGQIVETYTEEDPEGAMSVVSVETTDDGTTRRTETTVKKVVKTMTTRTVQPVPMGPDGLPVDASAVSNNYIQTLGRDFRKNGNGGPGPYVGQAGTATLPRNFHYPPDGYGRHYEDGYPGGSDNYGSLSRVTRIEERYRPSMEGYRAPSRQDVYGPQPQVRVGGSSVDLHRFHPEPYGLEDDQRSMGYDDLDYGMMSDYGTARRTGTPSDPRRRLRSYEDMIGEEVPPDQYYWAPLAQHERGSLASLDSLRKGMPPPSNWRQPELPEVIAMLGFRLDAVKSNAAAYLQHLCYRNDKVKTDVRKLKGIPILVGLLDHPKKEVHLGACGALKNISFGRDQDNKIAIKNCDGVPALVRLLRKARDMDLTEVITGTLWNLSSHDSIKMEIVDHALHALTDEVIIPHSGWEREPNEDCKPRHIEWESVLTNTAGCLRNVSSERSEARRKLRECDGLVDALIFIVQAEIGQKDSDSKLVENCVCLLRNLSYQVHREIPQAERYQEALPTVANSTGPHAASCFGAKKGKDEWFSRGKKPTEDPANDTVDFPKRTSPARGYELLFQPEVVRIYISLLKESKTPAILEASAGAIQNLCAGRWTYGRYIRSALRQEKALSAIAELLTSEHERVVKAASGALRNLAVDARNKELIGKHAIPNLVKNLPGGQQNSSWNFSEDTVVSILNTINEVIAENLEAAKKLRETQGIEKLVLINKSGNRSEKEVRAAALVLQTIWGYKELRKPLEKEGWKKSDFQVNLNNASRSQSSHSYDDSTLPLIDRNQKSDKKPDREEIPMSNMGSNTKSLDNNYSTLNERGDHNRTLDRSGDLGDMEPLKGAPLMQKI
B2: the binding entry in assay [3] is “binds”.

B3: VE-cadherin (mouse, endogenous) (protein, UniProt P55284 46-784)
chain: DWIWNQMHIDEEKNESLPHYVGKIKSNVNRQNAKYVLQGEFAGKIFGVDANTGNVLAYERLDREKVSEYFLTALIVDKNTNKNLEQPSSFTVKVHDINDNWPVFSHQVFNASVPEMSAIGTSVIRVTAVDADDPTVAGHATVLYQIVKGNEYFSIDNSGLIFTKIKNLDREKQAEYKIVVETQDALGLRGESGTATVMIRLEDINDNFPVFTQSTYTFSVPEDIRVGKPLGFLTVVDPDEPQNRMTKYSIMQGEYRDTFTIETDPKRNEGIIKPTKSLDYEVIQQYTFYIEATDPTIRYEYLSSTSGKNKAMVTINVLDVDEPPVFQRHFYHFKLPENQKKPLIGTVVAKDPDKAQRSIGYSIRKTSDRGQFFRITKQGNIYNEKELDRETYAWYNLTVEANELDSRGNPVGKESIVQVYIEVLDENDNPPEFAQPYEPKVCENAAQGKLVVQISATDKDVVPVNPKFKFALKNEDSNFTLINNHDNTANITVKYGQFNREHAKFHYLPVLISDNGVPSLTGTSTLTVGVCKCNEQGEFTFCEEMAAQAGVSIQALVAIFLCILTITVITLLIILRRRIRKQAHAHSKSALEIHEQLVTYDEEGGGEMDTTSYDVSVLNSVRGGSTKPLRSTMDARPAVYTQVQKPPRLAPGLHGGPREMATMIDVKKEEADNDGGGPPYDTLHIYGYEGAESIAESLSSLSTNSSDSDIDYDFLNDWGPRFKMLAELYGSDPQEELII
For the molecule B3, the binding entry in assay [1] was “binds”.
